A short description of this series: general procedure: peptide synthesis; Sieber amide resin; 2-CTC hydrazide resin; DIC/OXYMA; HATU/DIEA for fragment coupling. As to conditions: late stage modification step, calculated by UPLC against tirzepatide reference standard.

With tirzepatide, the step yield result is reported as “estimated to be 47%”.
